Experimental data published in PubChem BioAssay AID720524 (National Center for Advancing Translational Sciences (NCATS), 2013).
Out of some 1,400 compounds screened, about 1,000 (71%) were called active. So high a share suggests a set chosen from earlier hits. This list was built around the results that the source calls inconclusive (neither active nor inactive); the mix of calls is not that of the screen. Calls come from the whole dose curve; as a rule, active = well fitted inhibition curve with a large enough effect; inconclusive = small, poorly fitted or top-dose-only effect; inactive = no such curve, though single readings can be large or run the other way. Potencies beside an inconclusive call are fits to weak or partial responses and may not hold up.

Assay: Nrf2 qHTS screen for inhibitors: Nrf2 A549 ARE-Fluc Confirmation Assay for Hit Validation; note: nearly all actives have a fitted effect of over 65% in size
Details: A549 ARE-firefly luciferase reporter, luminescence; series mostly up to 46.1 µM; activity change, negative = inhibition: at the top concentration
Source text: Nrf2 is a transcription factor that maintains cellular redox homoestasis and protects cells from xenobiotics. Nrf2 binds to the antioxidant response element (ARE) to induce gene expression of a broad spectrum of genes that encode for antioxidants. […] Finding a small molecule that act as an inhibitor of Nrf2 function would represent a novel therapeutic target that could lead to improvement in survival of patients undergoing chemo- and/or radio- therapy.
In collaboration with the Biswal laboratory, a cell based, luminescence assay (BugLite) was developed to detect the Nrf2 activity using the A549 ARE_Fluc cells (AID 493153). This assay was coupled with a fluorescence based (CellTiter Fluor) cytotoxicity assay to identify and exclude toxic compounds. This coupled assay was used to evaluate selected compounds for hit validation. The data herein is the result of the BugLite assay where decrease in luminescence signal = inhibition of Nrf2 activation. Inhibition is the desired outcome for this assay.
NIH Chemical Genomics Center [NCGC]
NIH Molecular Libraries Probe Centers Network [MLPCN]
Assay Submitter (PI): Shyam Biswal, Johns Hopkins University
[1] Shibata T., et al., Genetic alteration of Keap1 confers constitutive Nrf2 activation and resistance to chemotherapy in gallbladder cancer. Gastroenterology, 2008.
[2] Sjoblom T., et al., The consensus coding sequences of human breast and colorectal cancers. Science, 2006.
Five uL of cell suspension was dispensed into 1536-well white TC-treated plate using the Kalypsys dispenser to achieve a density of 5000 cells/well in all columns except column 1. The plates were incubated at 37deg C at 5% CO2 for 2 hours before 23 nL of compounds were added with the Kalypsys pin tool equipped with a 1,536-pin array. The control compounds Budesonide and Staurosporine were added at a concentration of 2mM. Budesonide was also added as a 1:10 titration, starting at 200uM, to achieve the dose-response control signal. The plates were incubated for 18-24 hour at 37deg C, 5% CO2 followed by a 5ul addition of 5% FBS OPTI-MEM growing media in column 1 as negative control. One microliter of 5x CellTiter Fluor (Promega) was added to each well and the assay plates were incubated at 37deg C, 5% CO2 for 30 minutes. The fluorescence signal was read using the PerkinElmer ViewLux plate reader (Ex = 405 nm /Em = 525 nm) for a 3 second exposure. After the signal was taken, 3 uL of 3x BugLite was dispensed into all wells. The plates were then incubated at room temperature for 15 minutes. A second ViewLux read (40 sec exposure) was performed to detect the luminescence signal. Cytotoxicity was assessed through the first fluorescent read while biochemical activity against Nrf2 was measured in the luminescent read. The data was normalized to the positive and negative controls.
% is set by controls: 0 for no effect and ±100 for the full control effect; potency is the fitted concentration of half-maximal effect.

Compound	Potency	activity change, negative = inhibition
COc1ccc2c(c1)c(C)cc[n+]2Cc1ccccc1	active: 10.3 µM	
Cc1ccc(Cl)cc1N1CCN(C(=O)c2cc3c(=O)[nH]c4ccccc4c3n2C)CC1	inconclusive: 3.66 µM [inhibitor, partial curve, poor fit]	
Cc1nc(C)c(C(=O)NNS(=O)(=O)c2ccc3ccccc3c2)s1	inconclusive: 16.4 µM [inhibitor, single point]	
CC(=O)N1CCCC1c1nc2ccccc2n1Cc1ccccc1C (centres undefined)		inactive: 18%
Cc1cc2c(cc1C)C(=O)NC(C)(C)C2		inactive: 17.6%
CCOC(=O)c1c(NC(=O)Cn2c(C)nc3ccccc32)sc2c1CCC2	inconclusive: 18.4 µM [inhibitor, single point]	
COc1ccc(Nc2nc(-c3cccs3)nc3ccccc23)cc1S(=O)(=O)N1CCOCC1	inconclusive: 23.1 µM [inhibitor, single point]	
COc1ccccc1NS(=O)(=O)c1cccc(C(=O)NC2CCN(Cc3ccccc3)CC2)c1	inconclusive: 4.11 µM [inhibitor, full curve]	
CCCNc1nc2c(c(=O)n(C)c(=O)n2C)n1CCC(C)C	inconclusive: 23.1 µM [inhibitor, single point]	
COc1cccc(CNC(=O)c2cccc(S(=O)(=O)N3CCN(c4ccc(F)cc4)CC3)c2)c1	inconclusive: 13 µM [inhibitor, partial curve]	
CC(C)Cn1c(C(C)C)nc([N+](=O)[O-])c1S(=O)(=O)c1ccc(F)cc1		inactive: -21.6%
Cc1nn(Cc2ccc(Cl)cc2)c(C)c1NC(=O)CSc1nc2c(c(C(F)(F)F)n1)CCc1ccccc1-2	inconclusive: 14.6 µM [inhibitor, single point]	
C/C(=N/NC(=O)c1ccc(C(C)(C)C)cc1)c1ccccn1	inconclusive: 2.06 µM [inhibitor, full curve]	
CSc1ccc(CN(C)C(=O)c2cccc(S(=O)(=O)N3CCN(Cc4ccccc4)CC3)c2)cc1	inconclusive: 13 µM [inhibitor, partial curve]	
Cc1cc(NC(=O)c2cc(Cl)ccc2Cl)ccc1-c1cc2ccccc2oc1=O		inactive: 4.73%
CCOc1ccc(S(=O)(=O)N(C(=O)c2ccncc2)c2ccc3oc(C)c(C(=O)OC)c3c2)cc1		inactive: -17.6%
CN(C)S(=O)(=O)c1ccc(N2CCN(S(=O)(=O)c3ccc(F)cc3)CC2)c(Cl)c1	inconclusive: 29.1 µM [inhibitor, single point]	
CC1(C)CC2CC(C)(CN2C(=O)COC(=O)c2ccccc2C(F)(F)F)C1 (centres undefined)		inactive: -24.5%
COc1ccc(Cn2cccc(NC(=O)Nc3cccc(C#N)c3)c2=O)cc1	inconclusive: 29.1 µM [inhibitor, single point]	
Cc1nc2ccc(NC(=O)c3cc(S(=O)(=O)N(C)c4ccccc4)ccc3Cl)cc2s1	inconclusive: 2.31 µM [inhibitor, full curve]	
COc1ccccc1C(=O)NC(=S)Nc1ccc(Cc2ccncc2)cc1	active: 20.6 µM	
Cc1ccccc1NC1=C(Cl)C(=O)OC1OC(=O)c1ccccc1C (centres undefined)	inconclusive: 3.66 µM [inhibitor, full curve]	

Compound	Potency	activity change, negative = inhibition
Cc1cc(C)nc(Nc2n[nH]c(C)n2)n1		inactive: -1.73%
O=C(Nc1nc(-c2ccc3ccccc3c2)cs1)C1CCN(S(=O)(=O)c2cccs2)CC1	inconclusive: 4.11 µM [inhibitor, full curve]	
FC(F)(F)c1cnc(N2CCC(=NOCc3ccc(Cl)cc3)CC2)c(Cl)c1		inactive: 6.76%
COc1ccc(CN(C)C(=O)/C=C/c2ccc(S(=O)(=O)N3CCCCCC3)cc2)cc1	inconclusive: 29.1 µM [inhibitor, single point]	
Cc1c(Cl)cccc1NC(=O)Cn1cc(C(=O)c2cccs2)c2ccccc21	active: 5.8 µM	
COc1cc(NC(=O)CSc2nc(-c3ccco3)cc(C(F)(F)F)n2)cc(OC)c1OC	inconclusive: 29.1 µM [inhibitor, single point]	
CC(=O)C1(O)Cc2c(O)c3c(c(O)c2C(OC2CC(N)C(O)C(C)O2)C1)C(=O)c1c(O)cccc1C3=O (centres undefined)	active: 0.461 µM	
CC(NNC(=S)N1CCN(c2ccccn2)CC1)c1nccc2ccccc12 (centres undefined)	inconclusive: 6.51 µM [inhibitor, single point]	
C[C@]12C=CC(=O)C=C1CC[C@@H]1C2C(O)C[C@@]2(C)C1CC[C@]2(O)C(=O)COC(=O)CCC(=O)NC(CC(=O)O)C(=O)O (some centres undefined)	active: 0.259 µM	
Cc1cc(C)c2nc(NNC(=O)c3ccc(S(=O)(=O)N4CCCC(C)C4)cc3)sc2c1 (centres undefined)	active: 6.51 µM	
CN(c1ccccc1)S(=O)(=O)c1ccc(Cl)c(C(=O)Nc2ccncc2)c1	inconclusive: 18.4 µM [inhibitor, single point]	
CC(=O)c1cn(CC(=O)Nc2cccc(C)c2C)c2ccccc12	inconclusive: 5.17 µM [inhibitor, partial curve]	
Cc1nc(N2CCCCC2)sc1C(=O)c1cccc([N+](=O)[O-])c1		inactive: -19.6%
O=c1c2ccccc2nc2n1CCN2Cc1ccc(Cl)cc1	active: 4.11 µM	
COc1ccc2cc3c(N)nn(C(=O)c4ccccc4Cl)c3nc2c1	inconclusive: 29.1 µM [inhibitor, single point]	
CCCC(=O)Nc1nc(-c2ccc3c(c2)CCN3S(C)(=O)=O)cs1	inconclusive: 8.2 µM [inhibitor, partial curve]	
O=C(Nc1nc(-c2ccccc2)cs1)c1ccc(N2CCOCC2)c([N+](=O)[O-])c1	active: 7.31 µM	
COc1ccc(C(=O)C[n+]2ccc(N)c(C)c2C)cc1	active: 6.51 µM	
O=C(CSc1ncnc2c1cnn2-c1ccc(F)cc1)NC1CCCC1	inconclusive: 18.4 µM [inhibitor, single point]	
CCOC(=O)C1CCCN(S(=O)(=O)c2ccc(S(=O)(=O)N3CCCC3)cc2)C1 (centres undefined)	inconclusive: 4.11 µM [inhibitor, partial curve]	
COC(=O)CCn1nnc(-c2ccc(C(C)C)cc2)n1	active: 0.58 µM	
Cc1nnc(SC(C)C(=O)Nc2ccc(Cl)cn2)n1Cc1ccccc1 (centres undefined)	inconclusive: 2.59 µM [inhibitor, full curve]	

Gathered by group, the compounds so far containing an aryl methoxy group.
Compound	Potency	activity change, negative = inhibition
COc1ccc2c(c1)c(C)cc[n+]2Cc1ccccc1	active: 10.3 µM	
COc1ccc(Nc2nc(-c3cccs3)nc3ccccc23)cc1S(=O)(=O)N1CCOCC1	inconclusive: 23.1 µM [inhibitor, single point]	
COc1ccccc1NS(=O)(=O)c1cccc(C(=O)NC2CCN(Cc3ccccc3)CC2)c1	inconclusive: 4.11 µM [inhibitor, full curve]	
COc1cccc(CNC(=O)c2cccc(S(=O)(=O)N3CCN(c4ccc(F)cc4)CC3)c2)c1	inconclusive: 13 µM [inhibitor, partial curve]	
COc1ccc(Cn2cccc(NC(=O)Nc3cccc(C#N)c3)c2=O)cc1	inconclusive: 29.1 µM [inhibitor, single point]	
COc1ccccc1C(=O)NC(=S)Nc1ccc(Cc2ccncc2)cc1	active: 20.6 µM	
COc1ccc(CN(C)C(=O)/C=C/c2ccc(S(=O)(=O)N3CCCCCC3)cc2)cc1	inconclusive: 29.1 µM [inhibitor, single point]	
COc1cc(NC(=O)CSc2nc(-c3ccco3)cc(C(F)(F)F)n2)cc(OC)c1OC	inconclusive: 29.1 µM [inhibitor, single point]	
COc1ccc2cc3c(N)nn(C(=O)c4ccccc4Cl)c3nc2c1	inconclusive: 29.1 µM [inhibitor, single point]	
COc1ccc(C(=O)C[n+]2ccc(N)c(C)c2C)cc1	active: 6.51 µM	
